Holding throughout (experiment): EMSA
In general terms: A gel shift assay detects complexes by their altered migration in electrophoresis.

Data set [1] concerns the target T1, CtrA (Rhodobacter capsulatus) (UniProt D5ATW9).
T1 sequence (looked up, limits assumed): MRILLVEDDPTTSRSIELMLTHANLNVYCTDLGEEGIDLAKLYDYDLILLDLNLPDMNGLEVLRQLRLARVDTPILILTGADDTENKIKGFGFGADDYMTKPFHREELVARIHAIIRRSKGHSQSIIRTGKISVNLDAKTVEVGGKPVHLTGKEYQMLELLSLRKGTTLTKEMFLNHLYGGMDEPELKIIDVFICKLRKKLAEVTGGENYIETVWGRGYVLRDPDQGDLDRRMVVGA
To be noted: 80 nM Cy5-dsDNA, 25 mM HEPES pH 8.0, 50 mM K-glutamate, 50 mM MgSO4, 1 mM DTT, 0.1 mM EDTA, 0.05% Triton X-100, 1 ug poly dI:dC, 4% glycerol, 30 C 15 min, recombinant protein, protein details: His6 (pEHisTEV, N-terminal).

In data set [2] the target is T2, CtrA D51E (Rhodobacter capsulatus) (UniProt D5ATW9).
T2 sequence (looked up, limits assumed): T1 sequence (looked up, limits assumed) with D51E
Particulars: low affinity; 80 nM Cy5-dsDNA, 25 mM HEPES pH 8.0, 50 mM K-glutamate, 50 mM MgSO4, 1 mM DTT, 0.1 mM EDTA, 0.05% Triton X-100, 1 ug poly dI:dC, 4% glycerol, 30 C 15 min; recombinant protein; label: 5'-Cy5 (one strand).

Data set [3] deals with T3, GafA (Rhodobacter capsulatus) (UniProt D5AUH1).
T3 sequence (looked up, limits assumed): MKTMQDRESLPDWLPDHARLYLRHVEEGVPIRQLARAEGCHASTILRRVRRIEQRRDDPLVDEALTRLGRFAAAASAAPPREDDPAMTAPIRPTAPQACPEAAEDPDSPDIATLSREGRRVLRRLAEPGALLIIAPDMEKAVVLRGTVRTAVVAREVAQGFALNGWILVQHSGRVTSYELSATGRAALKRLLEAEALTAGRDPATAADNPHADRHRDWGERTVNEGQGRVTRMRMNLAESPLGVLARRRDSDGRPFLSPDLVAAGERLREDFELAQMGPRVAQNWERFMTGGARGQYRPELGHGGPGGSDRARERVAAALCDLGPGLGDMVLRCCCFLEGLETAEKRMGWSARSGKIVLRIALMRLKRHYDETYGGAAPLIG
To be noted: up to 4 uM GafA, legend says unshifted, although 50 bp pGTA2 is bound; 80 nM Cy5-dsDNA, 25 mM HEPES pH 8.0, 50 mM K-glutamate, 50 mM MgSO4, 1 mM DTT, 0.1 mM EDTA, 0.05% Triton X-100, 1 ug poly dI:dC, 4% glycerol, 30 C 15 min; recombinant protein; label: 5'-Cy5; probe letters rebuilt from the primers and the genome.

Numbering of substitutions follows the chain as printed. The exact form of at least one protein or probe is not confirmed. For some of these results: Negatives hold for the conditions tested. Tags and fusion partners may be left off the protein sequences shown. For some of these results: A weaker result is weaker than the reference pair of the same experiment.

In the case of “GAACGGAATCCTGCGACAGTAACTACGTGTTAACCATTTGGTGACAAGGT (double strand) [pCtrA_50 (ctrA promoter)]”, the binding result in data set [1] (no detectable binding at up to 8000 nM protein, label: 5'-Cy5 (one strand)) is given as “no binding”; in data set [2], “binds more weakly”.

Regarding “GGGATGCGGCTGCAGACCGATCCGGCGGTGATTTACGGCGTGACCAAGGGGCAGGGCGTGCTGGGGCGCGGTTTGCGGCAATCGGAGCTGCGGCGCGAGACGCCCTATAACACCTATGTCATCGACGGGCTGCCGCCGGGGCCGATCTGCAACCCCGGGACGCAGGCGATCCGCGCGGCGCTGAACCCTGATTCGACGAAGTTCCTGTATTTCGTGGCGGACGGCACCGGCGGGCATGCTTTTGCCGAGACGATCACCGAGCATAACCGGAACGTCGCGCGCTGGCGGGAGATCGAGAAGACCCAAAAGCAGGGCGCAAGCGACGGAAACTGAAGGAAAACCCCGGCTTCGTCCGGGGTTTTTTCTTTTCAGCGGGTGCAACCCTGAATATAGCACTTGACTTTGCGAACGCTTCAAGGTAGAGATAAGGCATGCTAGGAGAGGTGGGCAAGCGCCGCGGGTGACCGTGTGCGCTTTTTTCATTTCGCTCGTGCGGACAGGCATGAGAGGCGGGTCACGCAAGACATGGACATGGGGTTCAAGGGTGGGGACGCTCCTCCGGTGGATTTGCTGGAGGAGACGGAGGAGCTTTATCGGGAAATTGCCGGGGAACTGGCCCTGGCGATGGTCAGC (double strand) [pGTA full-length RcGTA promoter, 633 bp]”, the binding result is on record as “no binding” in data set [1] (up to 4 uM CtrA, label: 5'-Cy5, probe letters rebuilt from the primers and the genome); “no binding” in data set [3].

Values taken from article PMC6363796, “Identification and characterization of a direct activator of a gene transfer agent”.
